From PubChem BioAssay AID540256 (National Center for Advancing Translational Sciences (NCATS), 2011)
Out of some 300,000 compounds screened, about 3,700 (1.2%) were called active. Inconclusive means that the source gave no clear call. Such entries were picked first, then a sample of the others. Calls come from the whole dose curve; tested in HEK293 cells. Potencies of inconclusive entries are doubtful fits and often do not repeat.

assay: qHTS for Inhibitors of binding or entry into cells for Lassa Virus; conditions: Lassa virus pseudotype entry inhibition, cell reporter; activity change, negative = inhibition: at 37.9 µM (top of the series) unless noted; note: nearly all actives have a fitted effect of over 50% in size
% is set by controls: 0 for no effect and ±100 for the full control effect; potency is the fitted concentration of half-maximal effect.

Row | Structure (SMILES) | Potency | activity change, negative = inhibition
1 | CNc1nnc(-c2ccc(C)cc2)c2ccccc12 | active: 7.94 µM | –
2 | CCn1nc(C(=O)Nc2ccc(S(=O)(=O)Nc3nccs3)cc2)c2ccccc2c1=O | – | inactive: -3.73%
3 | Cc1[nH]c2ccccc2c1/C=N/NC(=O)c1cccc([N+](=O)[O-])c1 | – | inactive: 1.5%
4 | CCCCN1C(C(=O)c2ccccc2)=C(OC(=O)CC)c2ccccc2S1(=O)=O | inconclusive: 35.5 µM [inhibitor, single point] | –
5 | Cc1cc(-n2c(C)cc(C(=O)CN3C(=O)NC4(CCCCC4C)C3=O)c2C)no1 (centres undefined) | – | inactive: -5.31%
6 | CC(=O)C1=C(c2ccccc2)NC(=O)NC1c1ccccc1OCC#N (centres undefined) | inconclusive: 0.0046 µM [inhibitor, full curve, poor fit] | –
7 | COC(=O)c1ccc(N=CC2=C(O)CC(c3ccccc3)CC2=O)cc1 (centres undefined) | – | inactive: -13.8%
8 | CC(=O)NCc1ccc(S(=O)(=O)N/N=C/c2ccc(Br)cc2)cc1 | inconclusive: 32.6 µM [inhibitor, single point] | –
9 | O=C(c1ccc2c(c1)N(Cc1ccccc1)C(=O)c1ccccc1S2(=O)=O)N1CCC(Cc2ccccc2)CC1 | inconclusive: 7.08 µM [inhibitor, partial curve, poor fit] | –
10 | COc1ccc2c(c1)c(=O)oc1cc(OCC(=O)NC3CCCCC3)ccc12 | inconclusive: 20.6 µM [inhibitor, single point] | –
11 | Cc1ccccc1CN1C(=O)C(O)(c2c[nH]c3ccccc23)c2cc(Cl)ccc21 (centres undefined) | inconclusive: 2.82 µM [inhibitor, partial curve, poor fit] | –
12 | Cc1nc2cc(C(F)(F)F)ccc2n1C1CCN(Cc2nnnn2CCc2ccccc2)CC1 | inconclusive: 31.6 µM [inhibitor, single point] | –
13 | Cc1cccc(N2CCN(S(=O)(=O)c3ccc4c(c3)C(C)(C)C(=O)N4C)CC2C)c1 (centres undefined) | inconclusive: 11.2 µM [inhibitor, partial curve, poor fit] | –
14 | CCCn1c(SCC(=O)NCc2ccccc2)n[nH]c1=O | – | inactive: -4.15%
15 | Cc1cccc(-n2c(/C=C/c3ccccc3O)nc3ccccc3c2=O)c1 | inconclusive: 4.47 µM [inhibitor, partial curve] | –
16 | COc1cccc(CN(C)CC(=O)Nc2cccc(S(=O)(=O)N(C)c3ccccc3)c2)c1OC | inconclusive: 20 µM [inhibitor, single point] | –
17 | O=C1/C(=C/c2cc3c(cc2Cl)OCO3)N2CCC1CC2 | – | inactive: -8.9%
18 | Cc1cc(/C(N)=N/OC(=O)c2ccc(Cl)cc2)no1 | inconclusive: 35.5 µM [inhibitor, single point] | –
19 | COc1ccc(NC(=O)/C(C#N)=C/c2ccc(OCc3ccccc3F)cc2)cc1 | inconclusive: 2.82 µM [activator, partial curve] | –

Part of the list above in another layout.
Row	Structure (SMILES)	Potency	activity change, negative = inhibition
2	CCn1nc(C(=O)Nc2ccc(S(=O)(=O)Nc3nccs3)cc2)c2ccccc2c1=O	–	inactive: -3.73%
9	O=C(c1ccc2c(c1)N(Cc1ccccc1)C(=O)c1ccccc1S2(=O)=O)N1CCC(Cc2ccccc2)CC1	inconclusive: 7.08 µM [inhibitor, partial curve, poor fit]	–
11	Cc1ccccc1CN1C(=O)C(O)(c2c[nH]c3ccccc23)c2cc(Cl)ccc21 (centres undefined)	inconclusive: 2.82 µM [inhibitor, partial curve, poor fit]	–
12	Cc1nc2cc(C(F)(F)F)ccc2n1C1CCN(Cc2nnnn2CCc2ccccc2)CC1	inconclusive: 31.6 µM [inhibitor, single point]	–
